Values of other authors in patent publication US12004868B2, “Liposomal mitigation of drug-induced inhibition of the cardiac IKr channel” (Signpath Pharma, Inc., priority 2011, dated 2024).

Conditions: human, in vivo; cited from earlier work

In the case of `CCCCc1oc2ccccc2c1C(=O)c1cc(I)c(OCCN(CC)CC)c(I)c1` [Amiodarone], the “increase in QT intervals” value is listed as 10%.
